In all, about 3,000 compounds went through this assay and about 45 (2%) showed an effect of 50% or more. Some of the results follow.
Each molecule was assayed on MOLM1 and UCSD/AML1 (averaged) (assay: cell viability relative to DMSO control (POC); higher = less growth inhibition). Settings: 1 µM; 72 h.
Method: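 Primary viability screen in the 3q26 EVI1-high AML cell lines MOLM1 and UCSD/AML1, compounds at 1 uM for 72 h. ATP CellTiter-Glo read-out given as percent viable over DMSO control (POC), averaged over duplicates. This mapping covers the TimTec NDL-3000 natural derivative library, whose compounds are identified by TimTec catalogue codes (ST...).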
Work on `CC(=O)CCC(=O)OC1CC(n2cnc3c(=O)[nH]c(NC(=O)C(C)C)nc32)OC1OP(=O)(O)Oc1ccc(Cl)cc1` (configuration not stated) yielded a cell viability of 92.2%. For `COc1cc(/C=C/C(=O)c2cn(C)nc2C)cc(OC)c1OC`, the cell viability was 100%. `O=C(CNC(=O)c1ccccc1)OCC(=O)c1ccc(OC(=O)c2ccccc2)cc1` was tested, and the cell viability was 85.1%. Work on `Cc1ccc(C)c(OCCn2cc(/C=C(\C#N)C(=O)N3CCc4ccccc4C3)c3ccccc32)c1` yielded a cell viability of 98.4%. For `CC(=O)NC1=C(NCCc2c[nH]c3ccccc23)C(=O)c2ccccc2C1=O`, the cell viability was 98.9%. In the case of `CCC(=O)NCCc1c[nH]c2ccc(Cl)cc12`, the cell viability was 99.2%. In the case of `CC(=O)Oc1cc2oc3c4ccccc4oc(=O)c3c2cc1OC(C)=O`, the cell viability was 102%. `COc1cc(C(=O)CCNc2ccc(OCc3ccccc3)cc2)cc(OC)c1OC` gave a cell viability of 94.4%. In the case of `CCOC(=O)C1CCN(CNC(=O)c2ccc(OC)c(OC)c2)CC1`, the cell viability was 98.2%. With `COc1cc(C(=O)NCC23CC4CC(C2)CC(c2ccc(C)c(C)c2)(C4)C3)cc(OC)c1OC` the cell viability was 94.6%. `CCCNC(=O)c1cc(=O)n(CC(=O)Nc2ccc(C)c(C)c2)c2ccccc12` gave a cell viability of 83.9%. `COc1ccc(/C=C2\CCc3ccccc3C2=O)cc1COc1c(Cl)cc(Cl)cc1Cl` showed a cell viability of 114%. `CCOc1cccc(C2NC(C)(C(=O)O)C3C(=O)N(c4ccccc4OC)C(=O)C23)c1O` (configuration not stated) showed a cell viability of 107%. `CC1=C(C(=O)OCc2ccccc2)C(c2coc3ccc(Cl)cc3c2=O)C2=C(CCCC2=O)N1` (configuration not stated) was tested, and the cell viability was 101%. Molecule `CC(=O)OC1CCC2(C)C(CCC3(C)C2C(=O)C=C2C4CC(C)(C(=O)OC5CCCCC5C)CCC4(C)CCC23C)C1(C)C` (configuration not stated) has a cell viability of 96.3%. `CCc1ccc2oc(=O)cc(CN3CCC4(CC3)OCCO4)c2c1` was tested, and the cell viability was 109%. `COc1ccc(-c2cc(=O)c3ccccc3o2)c(OC)c1` showed a cell viability of 113%. `CC(C)=C(NC(=O)c1ccccc1)C(=O)NCCc1c(C)[nH]c2ccccc12` gave a cell viability of 100%. In the case of `CCn1c(SCC(=O)Nc2cccc(Cl)c2C)nc2c(=O)[nH]cnc21`, the cell viability was 97.9%. Work on `OCC1OC(OC2OC(CO)C(O)C(O)C2O)C(O)C(O)C1O` (configuration not stated) yielded a cell viability of 102%. `O=C(O)CCC(=O)NCCc1c[nH]c2ccccc12` showed a cell viability of 97.5%. Work on `CC(C)COC(=O)NCCc1c[nH]c2ccccc12` yielded a cell viability of 88.9%. In the case of `COC(=O)c1ccc2c(c1)C(=O)/C(=C/c1ccc(OC)cc1OC)O2`, the cell viability was 96.6%. Work on `CCOc1ccc2oc(=O)cc(CN3CCN(CC#N)CC3)c2c1` yielded a cell viability of 98.2%. For `CCOc1cc(C2C3CCCCC3(O)CCN2CC(=O)Nc2cccc3ccccc23)ccc1O` (configuration not stated), the cell viability was 96.9%. For `CCOc1ccc2oc(=O)cc(CN3CCN(CC(=O)N(C)c4ccc(F)cc4)CC3)c2c1`, the cell viability was 96.2%. For `CC(=O)NC(Cc1c[nH]c2ccccc12)C(=O)NCCOc1cc(C)ccc1C(C)C` (configuration not stated), the cell viability was 74.2%.

From the supplement of paper PMC11150407
